# Data: PubChem BioAssay AID1671190 (National Center for Advancing Translational Sciences (NCATS), 2021)
# By UniProt entry, the sequences of proteins in these tests, tags left out. Where a name states a change or a piece, a line headed by the entry shows the natural chain unless it says otherwise.
# UniProt P18054: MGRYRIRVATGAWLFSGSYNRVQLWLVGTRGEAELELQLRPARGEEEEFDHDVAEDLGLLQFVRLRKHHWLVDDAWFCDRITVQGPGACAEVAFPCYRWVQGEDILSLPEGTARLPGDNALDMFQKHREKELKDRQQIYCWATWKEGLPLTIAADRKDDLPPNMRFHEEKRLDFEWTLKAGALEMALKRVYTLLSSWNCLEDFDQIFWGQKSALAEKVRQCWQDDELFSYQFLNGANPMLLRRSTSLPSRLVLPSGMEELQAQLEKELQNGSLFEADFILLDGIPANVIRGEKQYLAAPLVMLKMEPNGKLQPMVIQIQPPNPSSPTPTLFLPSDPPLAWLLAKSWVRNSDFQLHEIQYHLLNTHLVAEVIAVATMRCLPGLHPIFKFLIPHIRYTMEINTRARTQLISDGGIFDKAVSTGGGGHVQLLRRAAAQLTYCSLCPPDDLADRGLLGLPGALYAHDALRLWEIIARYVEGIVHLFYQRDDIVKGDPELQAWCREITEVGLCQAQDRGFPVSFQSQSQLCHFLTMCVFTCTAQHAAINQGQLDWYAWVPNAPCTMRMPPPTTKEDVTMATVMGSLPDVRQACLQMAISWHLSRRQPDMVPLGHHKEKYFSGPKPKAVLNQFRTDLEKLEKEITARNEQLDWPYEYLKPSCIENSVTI
# Several values for one entry are separate records, joined by “and”; a condition that tells them apart may be missing. Equal entries are not always repeated. Screen size: about 580,000 compounds; about 6,100 (1.1%) were called active. The shares of active, inactive and inconclusive entries below differ from those in the screen. Calls come from the whole dose curve; as a rule, active = well fitted inhibition curve with a large enough effect; inconclusive = small, poorly fitted or top-dose-only effect, or another doubt; inactive = no such curve, though single readings can be large or run the other way. A potency beside an inconclusive call is a rough fit, not a confirmed value.
# Biological target: Polyunsaturated fatty acid lipoxygenase ALOX12 (Homo sapiens) (UniProt P18054)
# Assay: Primary qHTS assay for inhibitors of human arachidonate 12S-lipoxygenase (ALOX12): Round 2
# Conditions: purified 12hLO, xylenol orange hydroperoxide absorbance; activity change, negative = inhibition: at 108 µM (top of the series) unless noted
# Outline: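 Hydroperoxide product was detected by ferrous iron/xylenol orange as the 573 to 405 nm absorbance ratio. Arachidonic acid at 40 uM (final) was turned over for 30 min at room temperature by 150 nM human 12hLO, pH 7.0 Hepes buffer, after 15 min compound preincubation.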
# % is set by controls: 0 for no effect and ±100 for the full control effect; potency is the fitted concentration of half-maximal effect.
Compound,"activity change, negative = inhibition",Potency
CCn1c2ccccc2c2cc(NC(=O)c3coc(=O)c(Br)c3)ccc21,inactive: -7.5%,
CC(=O)NCCc1c[nH]c2ccc(O)cc12,,"inconclusive: 50.1 µM [inhibitor, partial curve, poor fit]"
CCOc1ccccc1C1NC(=O)N(CC(=O)Nc2ccc(Cl)cc2F)C2=C1C(=O)OC2 (stereo not drawn),inactive: -23.8%,
Cn1nc(C(=O)Nc2cc(C(F)(F)F)ccc2N2CCOCC2)c2ccccc2c1=O,inactive: 6.62%,
C[C@H](O)c1onc(-c2ccccc2)c1C(=O)N1CCOCC1,inactive: 48.4% [at 176 µM],
N/C(Cc1ccccc1Sc1ccccc1)=N\O,,"inconclusive: 63.1 µM [inhibitor, partial curve, poor fit]"
COc1cccc(C2=Cc3ccc(F)cc3C(CC(C)=O)N2c2ccc(-c3cncnc3)cc2)c1 (stereo not drawn),,active: 31.6 µM
Cc1ccc(-c2csc(C(O)c3ccc(F)cc3)n2)cc1C (stereo not drawn),,"inconclusive: 79.4 µM [inhibitor, partial curve, poor fit]"
Nc1cc(=O)[nH]c(SCC(=O)N2N=C(c3ccc(Cl)cc3)CC2c2ccco2)n1 (stereo not drawn),,active: 39.8 µM
N#Cc1cc(C(=O)c2cc(F)ccc2O)cn(-c2nccs2)c1=O,,"inconclusive: 22.4 µM [inhibitor, partial curve, poor fit]"
O=C(Nc1nnc(-c2ccco2)o1)c1ccc(S(=O)(=O)N2CCCCC2)cc1,inactive: -5.18%,
O=C(CNC(=O)c1ccccc1)OCc1cc(=O)oc2cc(O)ccc12,inactive: 0.076%,
CN(C)CCNc1nc2sc3c(c2c(=O)n1CCc1ccccc1)CCCCC3,,"inconclusive: 126 µM [inhibitor, single point]"
CCOC(=O)CNC(=O)c1cc(-c2ccccc2)nc2ccccc12,,"inconclusive: 89.1 µM [inhibitor, single point]"
CCOc1ccccc1C(=O)Oc1ccc(OC)cc1,inactive: 4.62%,
O=c1cc(CN2CCCC2)c2c(ccc3ccccc32)o1,,"inconclusive: 44.7 µM [inhibitor, partial curve, poor fit]"
COc1ccc(-c2csc(NC(=O)c3ccc(OCC(=O)N4CCOCC4)c(OC)c3)n2)cc1,inactive: -22%,
N#Cc1c(NC(=O)c2ccnn2C(F)F)sc2c1CCCCC2,,"inconclusive: 10 µM [inhibitor, full curve]"
COCOc1cccc(CN2CCC2(C)C(=O)Nc2ccc(C)c(O)c2)c1 (stereo not drawn),inactive: -9.54%,
CCC(C(=O)NCc1cccc(C)c1)n1nc(C)c2c(C)n(-c3ccccc3)nc2c1=O (stereo not drawn),inactive: -6.13%,
Cc1ccc(S(=O)(=O)N2CCC(c3nnc(-c4cccc(C)c4)o3)CC2)cc1,,"inconclusive: 126 µM [inhibitor, single point]"

# Reformatted: 3 of the compounds above.
Compound	activity change, negative = inhibition	Potency
COc1cccc(C2=Cc3ccc(F)cc3C(CC(C)=O)N2c2ccc(-c3cncnc3)cc2)c1 (stereo not drawn)		active: 31.6 µM
Cc1ccc(-c2csc(C(O)c3ccc(F)cc3)n2)cc1C (stereo not drawn)		inconclusive: 79.4 µM [inhibitor, partial curve, poor fit]
Nc1cc(=O)[nH]c(SCC(=O)N2N=C(c3ccc(Cl)cc3)CC2c2ccco2)n1 (stereo not drawn)		active: 39.8 µM

# The list goes on:

Compound,"activity change, negative = inhibition",Potency
CCOC(=O)CNc1nc(Cl)c(C#N)s1,inactive: -10.5%,
O=C(CSc1nc2ccccc2o1)N/N=C/c1ccc(O)c(O)c1,,"inconclusive: 2 µM [inhibitor, full curve, poor fit]"
COc1cc(OC)cc(C(=O)NCC(=O)O)c1,,"inconclusive: 2.51 µM [inhibitor, full curve, poor fit]"
CCN(CC)c1ccc(/C=N/NC(=O)OC)c(O)c1,inactive: 64.4%,
c1ccc2oc(-c3csc(NCC4CCCO4)n3)cc2c1 (stereo not drawn),,"inconclusive: 89.1 µM [inhibitor, partial curve, poor fit]"
O=CNc1cc(-c2ccoc2)cn2c(-c3ccc(F)cc3)cnc12,,"inconclusive: 50.1 µM [inhibitor, partial curve, poor fit]"
CCOc1ccc(CNC(=O)CCc2c(C)nn(-c3ccc(N4CCOCC4)nn3)c2C)cc1,,"inconclusive: 126 µM [inhibitor, partial curve, poor fit]"
COc1ccc(C2N(c3ccccc3)C(=O)C2(F)F)cc1OC (stereo not drawn),,"inconclusive: 112 µM [inhibitor, single point]"
CS(=O)(=O)N1CCc2cc(S(=O)(=O)N3CCCCC3)ccc21,,"inconclusive: 141 µM [inhibitor, partial curve, poor fit]"
CCOC(=O)COc1ccc2c(=O)c(-c3ccc(OC)c(OC)c3)coc2c1,inactive: 54.5%,
CCOc1c(C)cc(S(=O)(=O)NCc2ccccn2)c(C)c1C,,"inconclusive: 35.5 µM [inhibitor, partial curve, poor fit]"
COc1ccc(CCNCCC(c2ccccc2)c2ccccc2)cc1OC,,"inconclusive: 44.7 µM [inhibitor, partial curve, poor fit]"
O=C(NN=Cc1ccc(F)c(F)c1)c1ccc(NS(=O)(=O)c2cccs2)cc1,,"inconclusive: 0.199 µM [inhibitor, full curve, poor fit]"
COc1ccc(C(C)(O)c2nc(-c3cccs3)cs2)cc1 (stereo not drawn),,"inconclusive: 44.7 µM [inhibitor, partial curve, poor fit]"
N#Cc1ccccc1CN1CCc2cc(S(=O)(=O)N3CCOCC3)ccc21,,"inconclusive: 100 µM [inhibitor, single point]"
Cc1ccc(NC(=O)NCCN2CCCCC2)cc1Cl,,"inconclusive: 79.4 µM [inhibitor, single point]"
Cc1[nH]c2ccc(F)cc2c1CC(=O)NCC(F)(F)F,inactive: 33%,
O=c1ccc2ccc(O)c(O)c2o1,,"inconclusive: 891 nM [inhibitor, full curve, poor fit] and inconclusive: 2.24 µM [inhibitor, full curve, poor fit]"
Cc1nn(-c2ccc(Cl)cc2)c2sc(C(=O)c3c(N)n(C)c(=O)n(C)c3=O)cc12,,"inconclusive: 3.98 µM [inhibitor, full curve, poor fit]"
Cn1ncc2c(C(=O)NCCc3ccc(Cl)cc3)cc(C(C)(C)C)nc21,,"inconclusive: 79.4 µM [inhibitor, partial curve, poor fit]"
CN(C)CCCN(Cc1ccccc1)C(=S)Nc1ccc(SC(F)F)cc1,,"inconclusive: 50.1 µM [inhibitor, partial curve, poor fit]"
